PMC12904710
No constants are given. Whether binding was seen depends on the method and setting. In cells and extracts the contact can be indirect. For some assays here: Binding can be weak; no strength is given. For some assays here: Tags and fused reporters may be left off the sequences shown.

T1: GST-tagged KPTN (human) (UniProt Q9Y664)
T1 sequence: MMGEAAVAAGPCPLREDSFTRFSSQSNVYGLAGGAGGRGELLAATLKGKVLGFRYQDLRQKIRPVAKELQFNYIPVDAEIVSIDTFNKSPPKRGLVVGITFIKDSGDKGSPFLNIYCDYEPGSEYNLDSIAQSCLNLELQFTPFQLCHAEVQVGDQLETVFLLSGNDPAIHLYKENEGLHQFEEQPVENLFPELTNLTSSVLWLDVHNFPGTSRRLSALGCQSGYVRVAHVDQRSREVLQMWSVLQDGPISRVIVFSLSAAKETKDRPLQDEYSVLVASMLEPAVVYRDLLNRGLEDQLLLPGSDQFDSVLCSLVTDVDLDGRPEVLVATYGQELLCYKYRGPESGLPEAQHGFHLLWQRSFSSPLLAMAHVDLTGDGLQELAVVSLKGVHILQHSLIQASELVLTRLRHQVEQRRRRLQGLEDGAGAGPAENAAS


Assays:
GST-tagged KPTN (human) = target: T1, GST-tagged KPTN (human); experiment: pull-down; whole cell lysate with HA-FBXO2 incubated with 2 ug purified GST-KPTN at 4 C for 4 hours, glutathione-agarose beads, NP-40 buffer; only the target purified
[1] = target: Flag-FBXO2 (F-box only protein 2); experiment: co-IP; anti-Flag magnetic beads on whole cell lysates of wild-type or NPRL2-knockout HEK293T cells transduced with Flag-FBXO2 (Figure 2C)

Row | binding (GST-tagged KPTN (human)) | binding [1] | Molecule
1 | no binding | – | HA-tagged FBXO2-Y279A/W280A
2 | – | binds | KPTN (endogenous) (protein, UniProt Q9Y664 1-436) MMGEAAVAAGPCPLREDSFTRFSSQSNVYGLAGGAGGRGELLAATLKGKVLGFRYQDLRQKIRPVAKELQFNYIPVDAEIVSIDTFNKSPPKRGLVVGITFIKDSGDKGSPFLNIYCDYEPGSEYNLDSIAQSCLNLELQFTPFQLCHAEVQVGDQLETVFLLSGNDPAIHLYKENEGLHQFEEQPVENLFPELTNLTSSVLWLDVHNFPGTSRRLSALGCQSGYVRVAHVDQRSREVLQMWSVLQDGPISRVIVFSLSAAKETKDRPLQDEYSVLVASMLEPAVVYRDLLNRGLEDQLLLPGSDQFDSVLCSLVTDVDLDGRPEVLVATYGQELLCYKYRGPESGLPEAQHGFHLLWQRSFSSPLLAMAHVDLTGDGLQELAVVSLKGVHILQHSLIQASELVLTRLRHQVEQRRRRLQGLEDGAGAGPAENAAS
